Experimental data as given in patent publication US20030086986A1, “Ophthalmic, pharmaceutical and other healthcare preparations with naturally occurring plant compounds, extracts and derivatives” (priority 1998, published 2003).
At least one compound was matched to its structure with a doubt left.

Tested on: Pseudomonas aeruginosa
Test: Log kill test of preservative/disinfectant formulae (challenge inoculum, plating over time)
Type: cell-based

## C/C=C1/[C@H](O[C@@H]2O[C@H](CO)[C@@H](O)[C@H](O)[C@H]2O)OC=C(C(=O)OC)[C@H]1CC(=O)OCCc1ccc(O)c(O)c1 [Oleuropein]
  Effectiveness against Pseudomonas aeruginosa, in words: extremely effective
